For two substances, binding results are on record in publication doi:10.1101/2025.10.30.685510.

Where two headings read alike, the source gives them in different places. Results are given in words; binding and its absence hold for the method and conditions named. Binding seen in cells or lysates may run through a third protein. For part of these data: Binding calls can cover weak binding; strength is not graded here. Tags and fused reporters may be left off the sequences shown.

For test [1], the target named is T1, EssC with a C-terminal Twin-Strep tag (Staphylococcus aureus) (UniProt Q2G184).
T1 sequence: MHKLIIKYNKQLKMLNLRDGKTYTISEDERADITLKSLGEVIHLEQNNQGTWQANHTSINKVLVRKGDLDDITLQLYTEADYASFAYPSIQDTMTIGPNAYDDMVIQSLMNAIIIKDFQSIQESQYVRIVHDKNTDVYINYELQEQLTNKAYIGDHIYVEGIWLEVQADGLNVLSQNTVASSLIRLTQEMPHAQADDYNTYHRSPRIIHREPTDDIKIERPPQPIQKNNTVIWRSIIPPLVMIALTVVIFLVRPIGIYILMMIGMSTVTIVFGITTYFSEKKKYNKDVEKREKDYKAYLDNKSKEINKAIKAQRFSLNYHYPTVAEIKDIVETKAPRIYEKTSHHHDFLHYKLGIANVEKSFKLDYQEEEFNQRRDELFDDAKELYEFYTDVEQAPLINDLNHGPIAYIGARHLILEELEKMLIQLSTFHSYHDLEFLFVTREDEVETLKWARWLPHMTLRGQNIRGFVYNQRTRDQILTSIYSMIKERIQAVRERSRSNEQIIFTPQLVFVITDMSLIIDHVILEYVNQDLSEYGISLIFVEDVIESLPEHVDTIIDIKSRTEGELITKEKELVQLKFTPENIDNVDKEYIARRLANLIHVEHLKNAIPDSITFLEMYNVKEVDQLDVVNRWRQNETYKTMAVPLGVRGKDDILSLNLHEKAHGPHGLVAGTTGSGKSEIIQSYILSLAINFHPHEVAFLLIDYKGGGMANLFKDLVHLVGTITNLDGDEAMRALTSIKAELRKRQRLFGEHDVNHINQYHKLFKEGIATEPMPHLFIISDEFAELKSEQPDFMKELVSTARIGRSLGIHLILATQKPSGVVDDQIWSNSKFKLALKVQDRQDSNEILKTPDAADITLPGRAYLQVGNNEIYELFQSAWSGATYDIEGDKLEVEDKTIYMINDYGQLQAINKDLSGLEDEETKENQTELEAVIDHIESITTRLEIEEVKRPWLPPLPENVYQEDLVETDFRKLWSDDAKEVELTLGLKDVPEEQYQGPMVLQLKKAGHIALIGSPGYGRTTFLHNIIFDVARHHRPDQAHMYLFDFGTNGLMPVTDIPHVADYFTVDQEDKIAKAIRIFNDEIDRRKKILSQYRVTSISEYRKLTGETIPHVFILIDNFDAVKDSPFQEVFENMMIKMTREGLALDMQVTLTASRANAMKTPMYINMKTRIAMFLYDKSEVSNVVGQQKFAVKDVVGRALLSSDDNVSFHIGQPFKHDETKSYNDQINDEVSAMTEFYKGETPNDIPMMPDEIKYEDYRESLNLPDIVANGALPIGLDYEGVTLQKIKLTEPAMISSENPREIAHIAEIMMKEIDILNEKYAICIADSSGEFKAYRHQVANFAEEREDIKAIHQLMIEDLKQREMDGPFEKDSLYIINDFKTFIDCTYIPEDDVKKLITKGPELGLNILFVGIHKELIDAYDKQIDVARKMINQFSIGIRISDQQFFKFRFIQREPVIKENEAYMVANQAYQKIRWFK
Briefly: pull-down.

The target in test [2] is T1, EssC with a C-terminal Twin-Strep tag (Staphylococcus aureus). As to the kind of experiment: pull-down. The source holds these as a separate data set.

EssA: the results for the binding result in test [1] and in test [2] were “binds” and “no binding (only in the ΔesaA mutant)”, respectively.

As for EssH (enzyme), in test [1], the binding result was “binds”.
